The experiment is described as follows: qHTS Assay for Modulators of Lamin A Splicing. The conditions noted are these: HeLa LMNA splicing GFP/RFP minigene ratio, 48 h. A digest of the protocol:
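S3 HeLa cells stably expressing lamin A-EGFP splicing minigene plus DsRed2, 600 cells/well, 48 h compound exposure at 37C. Laser-scanning cytometry; analysed as GFP (500-530 nm)/RFP (575-640 nm) total intensity ratio; 0.5% DMSO vehicle.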

Where [1] appears, read: measured here: RFP viability control channel.
The mark [2] stands for this setting: measured here: GFP splicing reporter channel.

Some of the results follow. The main result of the screen is listed elsewhere. These columns were measured beside it and carry no call. Most of these compounds were active or inconclusive in the main read-out, so they are no random draw. Words in brackets tell the shape of the fitted curve; partial curves, single points and poor fits give uncertain potencies.

With `O=C(NCCOc1ccc(F)cc1)c1ccccc1SCc1ccccc1`, the concentration at half-maximal activity (AC50) under setting [1] is 22.4 µM [rising, partial curve].
Consider `O=C(N/N=C/c1cc2cc3c(cc2nc1Cl)OCCO3)c1ccccc1O`, for which the AC50 under setting [2] was 0.0708 µM [rising, full curve, poor fit].
For the molecule `O=S1(=O)c2cccc3cccc(c23)N1Cc1ccc(-c2nnco2)cc1`, the AC50 under setting [1] was 31.6 µM [rising, single point].
As to `CCC(=C(c1ccc(OC)cc1)c1ccc(OC)cc1)c1cn(CC(O)CN2CCN(C)CC2)c2ccccc12` (stereo not given), the AC50 reads like this: under setting [2], 25.1 µM [falling, partial curve]; under setting [1], 25.1 µM [falling, single point].
On to `CCNC(=S)N/N=C/c1cccc(OCc2c(F)cccc2Cl)c1`, for which the AC50 under setting [1] is 14.1 µM [rising, partial curve].
Take `COc1ccccc1NC(=O)c1c(C)cc(C)nc1SCC(=O)Nc1ccc(C)c(C)c1`: the AC50 under setting [2] is 1.78 µM [rising, partial curve] and the AC50 under setting [1] is 0.224 µM [rising, full curve, poor fit].
With `Nc1n[nH]c(C2CC2)c1N=Nc1ccc(Cl)cc1`, the AC50 under setting [2] is 35.5 µM [falling, single point].
`COc1ccc(CC(=O)N(c2ccccc2)c2nc(C)cs2)cc1`: under setting [1], the AC50 is 35.5 µM [rising, single point].
The same measure, in the same setting: next, `CC(C)(C)C(=O)NNC(=O)COc1ccc2ccccc2c1Br`: 17.8 µM [rising, single point].
Still for that read-out and setting: next, `NCCOc1ccc(C23CC4CC(CC(C4)C2)C3)cc1`: 28.2 µM [falling, single point].
The same measure, in the same setting: the result for `CCOC(=O)N1CCN(C(=O)c2ccc(OC)c(S(=O)(=O)N3CCOCC3)c2)CC1` reads 0.00316 µM [falling, full curve, poor fit].
On to `Cc1ccc(Sc2cnn(-c3ccccc3)c(=O)c2Cl)cc1`, for which, under setting [2], the concentration at half-maximal activity (AC50) was 4.47 µM [falling, single point].
In the case of `CCN(CC)S(=O)(=O)c1cccc(C(=O)OCC(=O)Nc2ccc3c(c2)c2ccccc2n3CC)c1`, the AC50 under setting [2] was 12.6 µM [rising, partial curve, poor fit] and the AC50 under setting [1] is 22.4 µM [rising, partial curve].
Turning to `O=C(Cc1ccccc1)N(Cc1cccnc1)c1nc2c(Cl)cccc2s1`, the half-maximal activity concentration (AC50) under setting [2] was 0.0224 µM [rising, full curve, poor fit] and the AC50 under setting [1] was 20 µM [rising, partial curve, poor fit].
Turning to `Cc1nc2cc(NC(=O)CSc3nc4c(C)cccc4cc3C#N)ccc2s1`, the AC50 under setting [2] was 2.51 µM [rising, partial curve, poor fit].
In the case of `O=C(CCC1CCCC1)N1CCc2c([nH]c3ccccc23)C1c1ccc(F)cc1` (stereo not given), under setting [1], the AC50 was 17.8 µM [rising, partial curve].
Regarding `CCOc1ccc2nc(SCc3ccc(OC)cc3)sc2c1`, the AC50 by setting is: under setting [2], 14.1 µM [rising, single point]; under setting [1], 25.1 µM [rising, single point].
Regarding `COc1ccc(NC(=O)c2cc3c(=O)n(Cc4cccs4)ccc3nc2C)cc1`, the AC50 under setting [1] is 22.4 µM [rising, partial curve].
Still for that read-out and setting: next, `COCCNc1nc(-c2ccc(OC)cc2)c(-c2ccc(OC)cc2)s1`: 28.2 µM [rising, single point].
In the case of `Cc1ccc(N2CCN(S(=O)(=O)N3CCCCC3)CC2)cc1Cl`, the AC50 under setting [2] was 14.1 µM [rising, single point] and the AC50 under setting [1] was 35.5 µM [rising, single point].
With `Cc1ccc(-n2ncc(C#N)c2/N=C/N2CCCCCC2)cc1`, under setting [1], the AC50 was 14.1 µM [rising, single point].
As to `Cc1cc(C)n(-c2ccc3cccc(NS(C)(=O)=O)c3n2)n1`, the AC50 was 2.24 µM [rising, full curve] under setting [2] and 3.55 µM [rising, partial curve, poor fit] under setting [1].
With `CNC(=S)N1N=C(c2ccc(Br)cc2)CC1c1ccc(N(C)C)cc1` (stereo not given), the AC50 is 1.26 µM [falling, full curve, poor fit] under setting [2] and 1.78 µM [falling, partial curve] under setting [1].
In the case of `NC(=S)c1ccc[n+]([C@@H]2O[C@@H](COP(=O)([O-])OP(=O)(O)OC[C@H]3O[C@@H](n4cnc5c(N)ncnc54)[C@H](OP(=O)(O)O)[C@H]3O)C(O)C2O)c1` (stereo not given in full), under setting [1], the AC50 is 5.62 µM [rising, single point].
Consider `CCOC(=O)c1c(C)oc2nc(C)nc(N3CCN(c4cc(Cl)ccc4C)CC3)c12`, for which the AC50 under setting [2] is 0.355 µM [rising, partial curve, poor fit] and the AC50 under setting [1] is 10 µM [rising, partial curve, poor fit].
Turning to `CN1N=C(C(=O)N2CCN(c3ccc([N+](=O)[O-])cc3)CC2)CCC1=O`, under setting [2], the AC50 was 25.1 µM [rising, partial curve, poor fit].
As for `CC1(C)CC(=O)/C(=C(/O)Cc2ccccc2)C(=NCCc2ccccc2)C1`, the half-maximal activity concentration (AC50) is 35.5 µM [rising, single point] under setting [2] and 14.1 µM [rising, single point] under setting [1].
Take `CCOC(=O)C1C(=O)OC(C)(C)C1C(C)C(=O)c1ccc(C)cc1` (stereo not given): the AC50 runs as follows: under setting [2], 5.62 µM [rising, single point]; under setting [1], 0.398 µM [rising, partial curve, poor fit].
In the case of `CCOC(=O)N1CCC(NC(=O)Cn2ncc3c4ccccc4n(C)c3c2=O)CC1`, under setting [1], the AC50 was 35.5 µM [rising, single point].
The same measure, in the same setting: the result for `CC(=O)Cc1cc(O)c2ccccc2c1OC(=O)c1ccccc1` reads 35.5 µM [rising, single point].
Take `COc1ccccc1CNCCCCCCNCCCCCCCCNCCCCCCNCc1ccccc1OC`: the AC50 is, setting by setting: under setting [2], 25.1 µM [rising, single point]; under setting [1], 0.000794 µM [falling, full curve, poor fit].
Regarding `Cc1ccc(CNC(=O)CN2C(=O)CSc3c2c(C)nn3-c2ccccc2)cc1`, the AC50 is 0.794 µM [falling, full curve, poor fit] under setting [2] and 31.6 µM [falling, partial curve, poor fit] under setting [1].
`NNC(=O)C(=O)NCCCN1CCOCC1`: the AC50 was 11.2 µM [falling, partial curve] under setting [2] and 25.1 µM [falling, partial curve] under setting [1].
Turning to `COC(=O)CCCCCCCCCC[N+]1(C)CCCCC1`, the AC50 under setting [2] is 17.8 µM [rising, partial curve] and the AC50 under setting [1] was 12.6 µM [rising, partial curve, poor fit].
For the molecule `c1ccc(CNc2ncnc3c2cnn3Cc2ccccc2)cc1`, under setting [1], the AC50 is 7.94 µM [rising, partial curve].
On to `CCC(=O)N1CCN(c2ccc(Cl)cc2NC(=O)c2ccc3c(c2)OCCO3)CC1`, for which the AC50 under setting [2] is 8.91 µM [rising, partial curve] and the AC50 under setting [1] was 11.2 µM [rising, single point].
With `N#CC1=C(SCC(=O)NC23CC4CC(CC(C4)C2)C3)NC(=O)C(C#N)C12CCCCC2` (stereo not given), under setting [1], the AC50 is 12.6 µM [rising, partial curve, poor fit].
On to `COc1ccc(S(=O)(=O)Nc2cc(Sc3ncn[nH]3)c(O)c3ccccc23)cc1`, for which the AC50 by setting is: under setting [2], 3.98 µM [falling, full curve]; under setting [1], 3.98 µM [falling, full curve].
On to `CSc1c(CC(=O)Nc2ccccc2Cl)n(Cc2ccccc2)c2ccccc12`, for which, under setting [1], the AC50 was 20 µM [falling, single point].
On to `Cc1ccc(C(=O)NC(=S)N2CCN(c3ccccc3F)CC2)cc1`, for which the AC50 by setting is: under setting [2], 35.5 µM [rising, single point]; under setting [1], 31.6 µM [rising, single point].
Consider `O=C(NCc1ccccc1Br)c1ccc2c(c1)nc1n2CCOC1`, for which, under setting [2], the AC50 is 7.94 µM [falling, partial curve, poor fit].
Same read-out and setting: the result for `Cc1c(C#N)c(N)nc2c3c(sc12)NC(=O)CC3c1ccccc1` (stereo not given) reads 5.62 µM [rising, single point].
`Cc1cnc(NC(=O)CCCc2nc3ccccc3s2)s1`: the AC50 reads like this: under setting [2], 35.5 µM [falling, single point]; under setting [1], 12.6 µM [falling, partial curve].
Turning to `CCC(=O)N1c2ccc(S(=O)(=O)CCC(=O)Nc3nccs3)cc2CC1C` (stereo not given), the AC50 under setting [2] was 11.2 µM [falling, single point].
For the molecule `COc1ccc(NC(=O)CSc2ccc3c(c2)OCCO3)cc1OC`, the AC50 is 35.5 µM [rising, single point] under setting [2] and 31.6 µM [rising, single point] under setting [1].
On to `c1ccc(Nc2nc(-c3ccncc3)cs2)nc1`, for which, under setting [1], the AC50 was 17.8 µM [rising, single point].
For `Cc1cc(NC(=O)CCS(=O)(=O)c2nc(-c3ccccc3)cc(C(F)(F)F)n2)no1`, the AC50 under setting [2] was 35.5 µM [falling, single point].
For `Cc1cc(NC(=O)CSc2nnc3c(C)cc4c(C)ccc(C)c4n23)no1`, the concentration at half-maximal activity (AC50) under setting [1] is 35.5 µM [rising, single point].
In the case of `CCCCc1nc2c(c3c1C[C@H](C)OC3)CN(S(=O)(=O)c1ccc(NC(C)=O)cc1)CC2`, the AC50 under setting [2] is 0.0562 µM [rising, full curve, poor fit].
In the case of `CCc1ccc(/C=C/C(=O)c2ccc(N3CCOCC3)cc2)cc1`, the AC50 under setting [1] is 35.5 µM [rising, single point].
Same read-out and setting: next, `O=C1C2CCCCN2C(=O)N1CCCCN1CCN(c2ccc([N+](=O)[O-])cc2)CC1` (stereo not given): 12.6 µM [rising, single point]; `Clc1ccccc1Cn1nc(-c2ccccc2)nc1-c1ccccc1`: 17.8 µM [rising, partial curve].
`CC(NC(=O)CCC(=O)N1CCN(S(=O)(=O)c2ccc(Cl)cc2)CC1)c1ccccc1` (stereo not given): the AC50 is 10 µM [rising, partial curve] under setting [2] and 14.1 µM [rising, single point] under setting [1].
In the case of `Cc1ccc2c(c1)nnn2C1CCN(S(=O)(=O)c2ccc(C(=O)NC3CCCC3)cc2)CC1`, the AC50 under setting [1] is 7.08 µM [rising, partial curve].

Values taken from PubChem BioAssay AID1487 (National Center for Advancing Translational Sciences (NCATS), 2009).
